Some results were stated once for a whole list of compounds, not compound by compound. Starred links: 1 amine or outer side, 2 acyl side, 3 side chain; linkers in the order of their positions; H or OH if unused. Positions of bridges follow the written chain, without caps; N, C: chain ends. Non-standard residues stand in square brackets, D forms with d. Residues, ends and D or L forms follow the SMILES beside them. Trimesoyl = O=C(c1cc(C(=O)[*:2])cc(C(=O)[*:3])c1)[*:1]; Nle = CCCC[C@H](N)C(=O)O; Dap = NC[C@H](N)C(=O)O; βAla = NCCC(=O)O
Legend:
[1] = test system: WEHI-13VAR cells; test: MTT viability of WEHI-13VAR cells without TNFα (cytotoxicity); assay type: cell-based
[2] = test system: TNFα-induced cell death in WEHI-13VAR fibroblasts (recombinant human TNFα); assay type: cell-based
Procedure: WEHI-13VAR fibroblasts were purchased from American Type Culture Collection (ATCC). For maintenance, cells were grown in full medium as RPMI-1640 supplemented with 10% FBS and 1% Abs. For toxicity assay, cells were seeded in a 96-well plate at a density of 5×10^3 cells/well in 100 μL of RPMI-1640/1% Abs supplemented with 10% or 5% FBS and allowed to grow overnight. Varying concentrations of recombinant human TNFα (0-250 ng/mL) or commercial mouse TNFα were (0-100 pg/mL) were incubated with 10 μM peptide and actinomycin D (1 μg/mL) in 100 μL of corresponding growth medium for 1 h at 37° C. Next, the medium in the 96-well plate was removed and replaced with the above fresh mixture and the cells were incubated overnight. […] The plate was kept in the incubator overnight to let the formazan crystals to completely dissolve, and the absorbance at 570 nm was measured on a TECAN plate reader. […]
One of the biological functions of TNFα is to induce death signaling. […] The cells were treated with a fixed concentration of peptides (10 μM) and varying concentrations of TNFα (0-1 μM), and the fraction of live cells was quantitated by the 3-(4,5-dimethylthiazol-2-yl)-2,5-diphenyltetrazolium bromide (MTT) assay. […]

With `CCCC[C@@H]1NC(=O)c2cc3cc(c2)C(=O)NC[C@@H](C(=O)NCCC(N)=O)NC(=O)[C@H](Cc2c[nH]cn2)NC(=O)[C@@H](CCCCN)NC(=O)CNC(=O)[C@@H](Cc2c[nH]cn2)NC(=O)[C@H](Cc2c[nH]c4ccccc24)NC(=O)[C@H](CCCCNC3=O)NC(=O)[C@@H](CO)NC(=O)[C@H](Cc2ccc(O)cc2)NC1=O` [Compound C1-66] ([Nle]Y[dS]KW[dH]G[dK]H[Dap][βAla]-NH2; linker N-4-10 via Trimesoyl) the “Concentration showing significant toxicity” value [1] was ≥ 1000 nM.

Compound `CC(=O)[C@@H](Cc1ccccc1)NC(=O)[C@@H](C)NC(=O)C(N)Cc1ccc(F)c(F)c1` (stereo partly drawn) [Compound C1-74-3] has an LD50 [2] of 1.9 to 3.2 ng/mL.

In the case of `CCCC[C@@H]1NC(=O)c2cc3cc(c2)C(=O)NC[C@@H](C(=O)NCCC(N)=O)NC(=O)[C@H](Cc2c[nH]cn2)NC(=O)[C@@H](CCCCN)NC(=O)CNC(=O)[C@@H](Cc2c[nH]cn2)NC(=O)[C@H](Cc2c[nH]c4ccccc24)NC(=O)[C@H](CCCCNC3=O)NC(=O)[C@@H](C)NC(=O)[C@H](Cc2ccc(O)cc2)NC1=O` [Compound C1-74] ([Nle]Y[dA]KW[dH]G[dK]H[Dap][βAla]-NH2; linker N-4-10 via Trimesoyl), the “Concentration showing significant toxicity” value [1] is reported as ≥ 1000 nM.
